In publication PMC6126924, “Arabidopsis formin 2 regulates cell-to-cell trafficking by capping and stabilizing actin filaments at plasmodesmata” (eLife, 2018):
No constants are given. Whether binding was seen depends on the method and setting. Tags and fused reporters may be left off the sequences shown.

Target: 6His-AtFH2-FH2M (Arabidopsis thaliana) (UniProt O22824)
Test: SEC; Superdex 200 Increase 10/300; 100 mM Tris-HCl pH 8.5, 150 mM NaCl, 1 mM DTT, 5% glycerol; 0.4 mL/min; His-tag fusion proteins; both purified

B1: 6His-AtFH2-FH2M (domain or fragment, UniProt O22824 438-864)
chain: EKKVETMKPKLKTLHWDKVRASSSRVMVWDQIKSNSFQVNEEMIETLFKVNDPTSRTRDGVVQSVSQENRFLDPRKSHNIAALLRALNVTADEVCEALIEGNSDTLGPELLECLLKMAPTKEEEDKLKELKDDDDGSPSKIGPAEKFLKALLNIPFAFKRIDAMLYIVKFESEIEYLNRSFDTLEAATGELKNTRMFLKLLEAVLKTGNRMNIGTNRGDAHAFKLDTLLKLVDIDGADGKTTLLHFVVQEIIKFEGARVPFTPSQSHIGDNMAEQSAFQDDLELKKLGLQVVSGLSSQLINVKKAAAMDSNSLINETAEIARGIAKVKEVITELKQETGVERFLESMNSFLNKGEKEITELQSHGDNVMKMVKEVTEYFHGNSETHPFRIFAVVRDFLTILDQVCKEVGRVNERTVYGSMPLHSPSN
  binding: no binding
